# Laboratory results as given in patent publication US20040018181A1.
# Sequences of proteins named here, by UniProt entry; tags and fusion partners are left off. A change or cut given only in a name is not applied to a line headed by its entry.
# UniProt P15941: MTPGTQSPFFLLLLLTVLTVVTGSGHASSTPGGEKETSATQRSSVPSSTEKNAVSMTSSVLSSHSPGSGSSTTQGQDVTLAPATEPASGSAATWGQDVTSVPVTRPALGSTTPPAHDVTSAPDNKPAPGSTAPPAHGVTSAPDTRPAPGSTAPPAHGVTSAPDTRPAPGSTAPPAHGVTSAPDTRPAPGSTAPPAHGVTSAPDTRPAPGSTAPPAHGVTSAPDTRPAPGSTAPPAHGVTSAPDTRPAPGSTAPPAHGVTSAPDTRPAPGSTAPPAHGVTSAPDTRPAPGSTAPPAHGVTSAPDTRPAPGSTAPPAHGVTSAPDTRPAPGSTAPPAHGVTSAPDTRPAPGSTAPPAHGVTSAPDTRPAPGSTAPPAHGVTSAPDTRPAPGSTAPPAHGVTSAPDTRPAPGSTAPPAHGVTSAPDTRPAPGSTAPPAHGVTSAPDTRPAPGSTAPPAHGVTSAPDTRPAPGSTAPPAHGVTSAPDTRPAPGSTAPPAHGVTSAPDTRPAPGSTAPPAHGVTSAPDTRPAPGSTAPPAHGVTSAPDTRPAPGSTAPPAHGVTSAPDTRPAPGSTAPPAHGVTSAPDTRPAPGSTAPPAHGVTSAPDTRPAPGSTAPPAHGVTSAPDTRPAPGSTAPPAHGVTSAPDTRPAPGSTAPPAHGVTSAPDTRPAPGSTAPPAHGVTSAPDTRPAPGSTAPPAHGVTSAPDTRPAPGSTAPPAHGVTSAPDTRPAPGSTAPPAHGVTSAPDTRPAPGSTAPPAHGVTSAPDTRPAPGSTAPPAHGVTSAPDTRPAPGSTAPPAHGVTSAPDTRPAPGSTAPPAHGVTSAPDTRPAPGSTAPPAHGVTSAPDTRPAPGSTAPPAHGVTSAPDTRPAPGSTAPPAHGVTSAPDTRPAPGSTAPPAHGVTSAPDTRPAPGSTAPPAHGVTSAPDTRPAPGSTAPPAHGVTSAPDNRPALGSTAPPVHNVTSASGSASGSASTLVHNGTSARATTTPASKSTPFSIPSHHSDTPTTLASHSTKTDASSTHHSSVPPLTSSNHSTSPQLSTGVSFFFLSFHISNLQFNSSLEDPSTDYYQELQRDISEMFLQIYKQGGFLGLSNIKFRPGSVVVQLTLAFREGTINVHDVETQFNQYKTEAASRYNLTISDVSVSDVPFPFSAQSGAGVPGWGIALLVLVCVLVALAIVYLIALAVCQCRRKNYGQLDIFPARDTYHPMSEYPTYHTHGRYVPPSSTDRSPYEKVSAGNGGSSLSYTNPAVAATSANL
# Results are given in words; binding and its absence hold for the method and conditions named. Some results given as binding are weak or reduced against the parent protein; the word gives no strength.
# Target: GST-MUC1/ECD fusion protein (human) (UniProt P15941)
# Assay: GST-MUC1/ECD affinity adsorbate, band identified by MALDI-TOF-MS of tryptic peptides
row,binding,Binder
1,binds,ML-2 (neuregulin 2 splice isoform 6) (ligand) CYSPSLKSVQDQAYKAPVVVEGKVQGLVPAGGSSSNSTREPPASGRVALVKVLDKWPLRSGGLQREQVISVGSCVPLERNQRYIFFLEPTEQPLVFKTAFAPLDTNGKNLKKEVGKILCTDCATRPKLKKMKSQTGQVGEKQSLKCEAAAGNPQPSYRWFKDGKELNRSRDIRIKYGNGRKNSRLQFNKVKVEDAGEYVCEAENILGKDTVRGRLYVNSVSTTLSSWSGHARKCNETAKSYCVNGGVCYYIEGINQLSCKCPNGFFGQRCLEKLPLRLYMPDPKQSVLWDTPGTGVSSSQWSTSPSTLDLN
2,binds,ML-1 (neuregulin 2 splice isoform 5) (ligand) CYSPSLKSVQDQAYKAPVVVEGKVQGLVPAGGSSSNSTREPPASGRVALVKVLDKWPLRSGGLQREQVISVGSCVPLERNQRYIFFLEPTEQPLVFKTAFAPLDTNGKNLKKEVGKILCTDCATRPKLKKMKSQTGQVGEKQSLKCEAAAGNPQPSYRWFKDGKELNRSRDIRIKYGNGRKNSRLQFNKVKVEDAGEYVCEAENILGKDTVRGRLYVNSVSTTLSSWSGHARKCNETAKSYCVNGGVCYYIEGINQLSCKCPNGFFGQRCLEKLPLRLYMPDPKQSVLWDTPGTGVSSSQWSTSPKPRSCTRRGS
